Among the data in publication PMC5751184 are binding values, retold here.

Chains of the proteins cited; added tags and fusions are not shown. Lines headed by an entry give the natural chain unless they say otherwise; changes in a name come on top. A line that says so, or that is headed by a name, gives the form on record, which may keep a tag or linker. Residues count along the entry.
FLAG-tagged CARMA2sh (Q9BXL6, residues 1-740): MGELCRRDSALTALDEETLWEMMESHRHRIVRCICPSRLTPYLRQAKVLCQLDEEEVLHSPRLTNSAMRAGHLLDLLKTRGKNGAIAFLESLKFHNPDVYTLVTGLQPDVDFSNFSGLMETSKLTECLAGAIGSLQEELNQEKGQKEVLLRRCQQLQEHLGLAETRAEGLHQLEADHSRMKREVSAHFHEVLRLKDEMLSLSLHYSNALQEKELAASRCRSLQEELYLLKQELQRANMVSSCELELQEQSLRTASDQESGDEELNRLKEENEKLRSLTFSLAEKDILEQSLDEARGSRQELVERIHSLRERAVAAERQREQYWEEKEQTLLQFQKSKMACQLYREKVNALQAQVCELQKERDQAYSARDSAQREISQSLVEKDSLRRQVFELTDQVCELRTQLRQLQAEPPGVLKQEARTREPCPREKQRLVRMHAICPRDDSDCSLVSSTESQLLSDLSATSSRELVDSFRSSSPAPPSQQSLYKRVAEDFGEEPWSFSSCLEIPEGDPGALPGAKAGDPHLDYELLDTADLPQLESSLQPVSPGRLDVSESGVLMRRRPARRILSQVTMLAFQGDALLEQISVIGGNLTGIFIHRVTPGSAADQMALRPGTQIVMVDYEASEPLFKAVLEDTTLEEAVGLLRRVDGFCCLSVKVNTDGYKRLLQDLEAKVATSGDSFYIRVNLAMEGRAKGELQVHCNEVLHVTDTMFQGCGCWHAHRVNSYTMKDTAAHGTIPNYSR
FLAG-tagged CARMA2shE138A (psoriasis-linked mutant) (Q9BXL6, form named): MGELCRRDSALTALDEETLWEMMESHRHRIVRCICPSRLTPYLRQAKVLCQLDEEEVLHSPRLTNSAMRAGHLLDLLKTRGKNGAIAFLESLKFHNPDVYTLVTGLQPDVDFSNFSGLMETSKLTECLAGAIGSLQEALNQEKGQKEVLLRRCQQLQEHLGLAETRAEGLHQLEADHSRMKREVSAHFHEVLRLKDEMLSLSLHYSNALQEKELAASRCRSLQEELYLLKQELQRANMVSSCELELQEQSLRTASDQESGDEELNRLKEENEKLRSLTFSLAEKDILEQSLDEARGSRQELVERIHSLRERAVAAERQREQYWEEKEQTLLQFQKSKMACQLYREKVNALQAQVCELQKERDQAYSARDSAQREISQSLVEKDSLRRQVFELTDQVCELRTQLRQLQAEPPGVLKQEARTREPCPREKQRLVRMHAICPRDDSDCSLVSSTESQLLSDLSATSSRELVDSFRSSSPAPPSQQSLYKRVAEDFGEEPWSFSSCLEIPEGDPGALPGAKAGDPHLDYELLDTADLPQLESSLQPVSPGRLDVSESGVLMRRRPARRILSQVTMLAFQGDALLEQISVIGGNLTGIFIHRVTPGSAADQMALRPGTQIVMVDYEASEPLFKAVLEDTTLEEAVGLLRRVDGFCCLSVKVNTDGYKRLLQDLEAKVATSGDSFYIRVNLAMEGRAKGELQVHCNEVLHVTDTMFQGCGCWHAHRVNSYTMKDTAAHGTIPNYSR
FLAG-tagged CARMA2shE142G (psoriasis-linked mutant) (Q9BXL6, form named): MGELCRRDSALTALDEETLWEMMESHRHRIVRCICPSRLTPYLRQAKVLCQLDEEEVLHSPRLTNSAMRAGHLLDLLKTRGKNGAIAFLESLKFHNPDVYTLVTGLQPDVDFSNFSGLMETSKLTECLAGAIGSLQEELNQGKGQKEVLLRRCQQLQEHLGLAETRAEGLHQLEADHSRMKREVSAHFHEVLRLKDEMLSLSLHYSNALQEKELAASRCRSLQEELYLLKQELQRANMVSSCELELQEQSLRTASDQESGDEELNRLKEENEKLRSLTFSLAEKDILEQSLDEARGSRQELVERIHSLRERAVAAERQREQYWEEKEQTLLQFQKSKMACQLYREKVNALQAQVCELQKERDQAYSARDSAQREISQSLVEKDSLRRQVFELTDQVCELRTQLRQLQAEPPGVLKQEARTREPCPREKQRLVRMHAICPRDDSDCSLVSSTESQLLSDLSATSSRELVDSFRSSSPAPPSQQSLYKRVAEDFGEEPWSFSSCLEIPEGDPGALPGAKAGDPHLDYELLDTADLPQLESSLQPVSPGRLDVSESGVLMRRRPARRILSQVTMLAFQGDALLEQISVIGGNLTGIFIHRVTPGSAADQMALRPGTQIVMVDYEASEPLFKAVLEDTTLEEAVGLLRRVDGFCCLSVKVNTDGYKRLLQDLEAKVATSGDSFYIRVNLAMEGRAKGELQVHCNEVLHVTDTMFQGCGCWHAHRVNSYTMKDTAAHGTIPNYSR
UniProt Q9UBF6: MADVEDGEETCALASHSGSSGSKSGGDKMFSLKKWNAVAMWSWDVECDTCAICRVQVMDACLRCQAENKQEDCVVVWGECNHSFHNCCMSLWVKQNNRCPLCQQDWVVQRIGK

These are yes or no findings as the source states them, for the method shown. Binding seen in cells or lysates may run through a third protein. Some results given as binding are weak or reduced against the parent protein; the word gives no strength.

For assay [1], the target named is CARMA2sh, endogenous in HaCaT cells (human (endogenous in HaCaT)) (UniProt Q9BXL6). Kind of assay: co-IP; endogenous proteins in HaCaT lysates, cells untreated or stimulated with IL-1β for 30 min; anti-myc as control antibody; immunoblot.
Assay [2] has as its target FLAG-tagged CARMA2sh (human) (UniProt Q9BXL6). In words: co-IP; HEK293T cotransfected with FLAG-tagged CARMA2sh (wt or mutant) and HA-tagged RNF7; lysates after 24 h immunoprecipitated with anti-FLAG, blot with anti-HA; lysis buffer 150 mM NaCl, 20 mM HEPES pH 7.4, 1% Triton X-100, 10% glycerol.
For assay [3], the target named is FLAG-tagged CARMA2shE138A (psoriasis-linked mutant) (human) (UniProt Q9BXL6). The description is as above.
In assay [4] the target is FLAG-tagged CARMA2shE142G (psoriasis-linked mutant) (human) (UniProt Q9BXL6). Described as above.

Regarding “RNF7, endogenous in HaCaT cells (from UniProt Q9UBF6 1-113)”, the binding result in assay [1] is on record as “binds”.
Take “HA-tagged RNF7 (from UniProt Q9UBF6 1-113)”: the binding result in assay [2], in assay [3] and in assay [4] was “binds” throughout.
